Laboratory results: paper PMC3167817

Amino acid sequences for entries named in this document (tags omitted). A change or cut given only in a name is not applied to a line headed by its entry. Residues count along the entry.
UniProt Q15303: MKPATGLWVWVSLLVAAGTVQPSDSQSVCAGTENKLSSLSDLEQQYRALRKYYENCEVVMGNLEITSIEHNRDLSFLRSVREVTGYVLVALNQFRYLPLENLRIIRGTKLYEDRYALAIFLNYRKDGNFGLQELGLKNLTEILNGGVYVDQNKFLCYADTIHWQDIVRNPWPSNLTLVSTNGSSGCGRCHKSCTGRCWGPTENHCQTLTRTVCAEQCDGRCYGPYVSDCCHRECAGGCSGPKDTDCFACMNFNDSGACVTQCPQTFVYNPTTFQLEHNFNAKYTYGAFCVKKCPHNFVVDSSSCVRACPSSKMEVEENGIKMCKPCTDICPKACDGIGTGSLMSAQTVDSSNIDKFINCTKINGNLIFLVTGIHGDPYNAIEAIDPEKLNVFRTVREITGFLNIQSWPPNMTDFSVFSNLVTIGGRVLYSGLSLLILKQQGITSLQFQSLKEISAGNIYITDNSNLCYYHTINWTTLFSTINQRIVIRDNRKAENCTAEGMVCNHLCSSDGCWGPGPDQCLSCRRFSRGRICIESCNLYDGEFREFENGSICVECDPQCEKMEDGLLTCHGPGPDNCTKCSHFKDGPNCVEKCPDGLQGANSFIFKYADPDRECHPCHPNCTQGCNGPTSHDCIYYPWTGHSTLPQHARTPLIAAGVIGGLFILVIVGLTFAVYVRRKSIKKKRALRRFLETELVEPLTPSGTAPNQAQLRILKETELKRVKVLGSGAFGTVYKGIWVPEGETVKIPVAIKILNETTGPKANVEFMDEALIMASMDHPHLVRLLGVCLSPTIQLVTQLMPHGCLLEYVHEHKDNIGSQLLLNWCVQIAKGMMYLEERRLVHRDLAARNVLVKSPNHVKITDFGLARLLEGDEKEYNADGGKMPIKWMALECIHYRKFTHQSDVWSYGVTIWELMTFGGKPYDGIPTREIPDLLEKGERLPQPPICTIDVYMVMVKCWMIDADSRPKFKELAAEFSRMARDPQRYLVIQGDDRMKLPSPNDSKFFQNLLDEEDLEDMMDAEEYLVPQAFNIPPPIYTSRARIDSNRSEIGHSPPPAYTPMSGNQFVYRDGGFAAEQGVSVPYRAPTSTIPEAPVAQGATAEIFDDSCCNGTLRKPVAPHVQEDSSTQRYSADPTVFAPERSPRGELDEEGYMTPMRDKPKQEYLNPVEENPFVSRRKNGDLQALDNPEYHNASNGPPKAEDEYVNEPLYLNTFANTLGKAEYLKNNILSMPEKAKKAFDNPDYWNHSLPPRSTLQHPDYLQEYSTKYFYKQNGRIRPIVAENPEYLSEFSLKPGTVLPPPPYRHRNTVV
UniProt P21860, 20-643: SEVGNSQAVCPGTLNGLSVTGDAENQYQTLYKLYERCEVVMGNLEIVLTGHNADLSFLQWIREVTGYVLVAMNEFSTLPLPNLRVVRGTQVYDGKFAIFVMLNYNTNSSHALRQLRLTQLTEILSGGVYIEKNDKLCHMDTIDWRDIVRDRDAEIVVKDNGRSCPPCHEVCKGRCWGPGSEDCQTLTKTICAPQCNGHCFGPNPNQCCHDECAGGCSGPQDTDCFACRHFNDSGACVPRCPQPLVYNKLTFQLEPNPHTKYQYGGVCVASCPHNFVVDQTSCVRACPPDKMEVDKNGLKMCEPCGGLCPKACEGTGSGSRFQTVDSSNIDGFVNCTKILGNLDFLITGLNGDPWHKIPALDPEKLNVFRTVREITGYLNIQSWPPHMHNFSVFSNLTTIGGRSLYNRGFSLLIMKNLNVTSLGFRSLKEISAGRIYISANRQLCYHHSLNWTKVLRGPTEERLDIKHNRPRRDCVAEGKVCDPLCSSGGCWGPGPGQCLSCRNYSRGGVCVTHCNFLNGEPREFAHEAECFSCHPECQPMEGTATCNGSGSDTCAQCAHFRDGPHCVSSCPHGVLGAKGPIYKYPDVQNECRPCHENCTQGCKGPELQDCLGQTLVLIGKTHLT

Tests used:
[1] = target: EGFR on A549 cells (endogenous) (human) (UniProt P00533); test: pull-down; conditions: streptavidin, anti-EGFR immunoblot; 2'-fluoro pyrimidines; pull-down: 200 nM aptamer on A549 cells 30 min RT, lysis in 10 mM Tris-HCl pH 7.5, 200 mM NaCl, 5 mM EDTA, 0.1% Triton X-100; protein on the cell surface; label: 3'-biotin
[2] = target: ErbB2 (UniProt P04626); conditions: 2'-fluoro pyrimidines
[3] = target: ErbB4 (UniProt Q15303); conditions: 2'-fluoro pyrimidines
[4] = target: EC-ErbB3, DTT treated (human) (UniProt P21860); test: filter binding; conditions: 5 mM DTT, 20 and 40 nM protein; 2'-fluoro pyrimidines; Filter binding: 1 nM radiolabeled RNA, PBS + 0.01% BSA, 15 min, 37 C (5 mM DTT for monomer); CL4sc background subtracted; commercial protein

Question: Does “GCCUUAGUAACGUGCUUUGAUGUCGAUUCGACAGGAGGC [CL4-bio]” bind [1]?
Answer: binds

Question: What does the source list for “GCCUUAGUAACGUGCUUUGAUGUCGAUUCGACAGGAGGC [CL4]”?
Answer: binding result [2]: no binding; binding result [3]: no binding; binding result [4]: no binding

Question: Does “UUCGUACCGGGUAGGUUGGCUUGCACAUAGAACGUGUCA [CL4sc]” bind [1]?
Answer: no binding

Construct, isoform or probe ends are uncertain for at least one entry. Negatives hold for the conditions tested. For some assays here: At least one verdict was read from the data and is not stated in words by the source. For some assays here: Where cells or extracts were used, other partners may take part.
